Laboratory results published in patent publication US8119364B2, “Methods for generating analogs of coenzyme A” (The Regents of the University of California, priority 2005, dated 2012).

Tested on: CoA biosynthetic enzymes (CoAA/D/E), PPTase Sfp and apo-ACP
Details: apo-ACP 8505 Da, MALDI-MS

Structure (SMILES)	mass change of ACP on formation of crypto-carrier protein [mass units]
CN(C)c1ccc2c(CC(=O)NCCOCCOCCNC(=O)[C@H](O)C(C)(C)CO)cc(=O)oc2c1 [Compound 17]	559
CN(C)c1ccc2c(CC(=O)NCCOCCOCCOCCOCCOCCOCCOCCOCCOCCOCCNC(=O)[C@H](O)C(C)(C)CO)cc(=O)oc2c1 [Compound 18]	916
CN(C)c1ccc2c(CC(=O)NCCCCCCNC(=O)CCNC(=O)[C@H](O)C(C)(C)CO)cc(=O)oc2c1 [Compound 13]	604
